Assay results reported in PubChem BioAssay AID1688 (National Center for Advancing Translational Sciences (NCATS), 2009).
In all, about 220,000 compounds went through this assay and about 2,400 (1.1%) were called active. Inconclusive means that the source gave no clear call. Such entries were picked first, then a sample of the others. The call rests on the fitted dose curve; in most records, active means well fitted inhibition curve with a large enough effect; inconclusive means small, poorly fitted or top-dose-only effect, or effect the other way; inactive means no such curve, though single readings can be large or run the other way. Potencies beside an inconclusive call are fits to weak or partial responses and may not hold up.

Test: qHTS Multiplex Assay to Identify Dual Action Probes in a Cell Model of Huntington: Aggregate Formation (GFP); further: nearly all actives have a fitted effect of over 60% in size
Conditions: PC12 HttQ103-GFP aggregates, Acumen cytometry, 40 h; activity change, negative = inhibition: at 46.1 µM (top of the series) unless noted
How it was run: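 Inducible Q103 Huntingtin exon 1–GFP PC12 line, 1500 cells/well in phenol red free DMEM with 5% equine and 5% calf serum. Tebufenozide 100 nM induced expression; compounds titrated; aggregates quantified by cytometry.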
On the % scale 0 is the no-effect control and ±100 the full control effect; potency means the concentration at half of the fitted maximal effect.

**Q.** Which Potency does the source give for CC(C)(C)Sc1ccc2nc3c(n2c1)CCCC3 here?
**A.** inconclusive: 11.2 µM [inhibitor, partial curve]

**Q.** With Brc1ccccc1-c1nnc(CSc2nnnn2-c2ccccc2)o1 as the molecule, how does the Potency read?
**A.** inconclusive: 35.5 µM [inhibitor, single point]

**Q.** Which Potency does the source give for CCOc1ccc(N=C2NC(=O)S/C2=C\c2ccc(N(C)C)cc2)cc1 here?
**A.** active: 22.4 µM

**Q.** Which Potency does the source give for COc1ccc2nc(NC(=O)CC3Oc4ccccc4NC3=O)sc2c1 (stereo not given) here?
**A.** inconclusive: 2.51 µM [inhibitor, single point]

**Q.** With COc1cccc(-c2nn(-c3ccccc3)cc2/C=C(\C#N)C(=O)NCCCn2ccnc2)c1 as the molecule, how does the Potency read?
**A.** inconclusive: 12.6 µM [inhibitor, single point]

**Q.** Which Potency does the source give for CC1(C)c2ccccc2N2CC(=O)NC21/C=C/c1ccco1 (stereo not given) here?
**A.** inconclusive: 31.6 µM [inhibitor, single point]

**Q.** Which Potency does the source give for CCC(=O)N1CCc2cc(OC)c(OC)cc2C1COc1ccc(OC)cc1 (stereo not given) here?
**A.** inconclusive: 5.01 µM [inhibitor, single point]

**Q.** With COc1ccc(-c2c3c(=O)n(C)c(=O)n(C)c3cn2-c2ccc(O)cc2)cc1 as the molecule, how does the activity change, negative = inhibition read?
**A.** inactive: -7.48% [at 9.22 µM]

**Q.** Which Potency does the source give for Cc1ccc(OCC(=O)NCC(=O)Nc2ccc(F)c(F)c2F)c([N+](=O)[O-])n1 here?
**A.** inconclusive: 22.4 µM [inhibitor, single point]

**Q.** Which Potency does the source give for C=CCN1C=CC(=C/C=C(/C#N)C(=O)OCC)C=C1 here?
**A.** inconclusive: 35.5 µM [inhibitor, partial curve]

**Q.** Which Potency does the source give for CCc1ccc2nc(NC(=O)Cn3cnc4ccccc4c3=O)sc2c1 here?
**A.** inconclusive: 0.794 µM [activator, full curve]

**Q.** For CCN(CC)C(=O)CSc1nc2cccnc2n1-c1ccccc1OC, which “activity change, negative = inhibition” value is on record?
**A.** inactive: 7.34%

**Q.** For CN(C)CCOc1nc(-c2ccccc2)nc2c1oc1ccccc12, which Potency is on record?
**A.** active: 22.4 µM

**Q.** For Cc1cc(/C=C2/C(=O)NN(c3ccccc3)C2=O)c(C)n1-c1cccc(O)c1, which “activity change, negative = inhibition” value is on record?
**A.** inactive: 27.1%

**Q.** Which Potency does the source give for Cc1cccc(-n2c(CCc3ccccc3)nnc2SCC(=O)c2ccccc2)c1 here?
**A.** inconclusive: 35.5 µM [inhibitor, single point]

**Q.** For CCCc1cc(=O)oc2cc(C)cc(O)c12, which Potency is on record?
**A.** inconclusive: 0.501 µM [inhibitor, full curve, poor fit]

**Q.** With N#CC1=C(N)Oc2cc(O)c(C=Nc3ccccc3)cc2C1c1ccccc1 (stereo not given) as the molecule, how does the Potency read?
**A.** active: 1.58 µM

**Q.** Which Potency does the source give for CCCCN(CC)C(=O)CSc1nc2n[nH]c(C)c2c(=N)n1-c1cccc(C)c1 here?
**A.** inconclusive: 12.6 µM [inhibitor, single point]

**Q.** For CSc1cccc(NC(=O)c2nnn(Cc3ccccc3)c2N)c1, which “activity change, negative = inhibition” value is on record?
**A.** inactive: 16.1%

**Q.** With CCc1c(C)sc(NC(=O)c2cccs2)c1C(=O)OC(C)C as the molecule, how does the “activity change, negative = inhibition” value read?
**A.** inactive: 5.18%

**Q.** Which Potency does the source give for O=C(Nc1nccs1)c1ccc(S(=O)(=O)NCc2cccs2)cc1 here?
**A.** inconclusive: 12.6 µM [inhibitor, partial curve, poor fit]

**Q.** For O=C(CCCCn1c(=O)[nH]c2ccccc2c1=O)N1CCN(c2cccc(C(F)(F)F)c2)CC1, which Potency is on record?
**A.** inconclusive: 22.4 µM [inhibitor, single point]

**Q.** Which Potency does the source give for Cc1nn(CC(=O)NC(C)C)c(C)c1[N+](=O)[O-] here?
**A.** inconclusive: 1.26 µM [activator, single point]

**Q.** Which Potency does the source give for COc1cc(/C=C(\C#N)c2nc3ccccc3s2)ccc1OCC(=O)Nc1ccccc1 here?
**A.** inconclusive: 6.31 µM [activator, partial curve, poor fit]

**Q.** Which Potency does the source give for O=C1NC(c2ccccc2)=C(c2ccc3ccccc3n2)C(c2ccccc2)N1 (stereo not given) here?
**A.** inconclusive: 14.1 µM [activator, single point]

**Q.** Which “activity change, negative = inhibition” value does the source give for CC1CC(C)CN(S(=O)(=O)c2ccc(NC(=O)C3COc4ccccc4O3)cc2)C1 (stereo not given) here?
**A.** inactive: -3.29%

**Q.** Which Potency does the source give for Cn1c(=O)oc2cc(S(=O)(=O)Nc3cccc4c3CCCC4)ccc21 here?
**A.** inconclusive: 17.8 µM [inhibitor, single point]

**Q.** Which Potency does the source give for OC(C#CCN1CCOCC1)c1cccs1 (stereo not given) here?
**A.** inconclusive: 3.16 µM [activator, partial curve]

**Q.** With O=C(CN1CCOCC1)Nc1nc2ccc(Br)cc2s1 as the molecule, how does the Potency read?
**A.** inconclusive: 3.55 µM [inhibitor, partial curve, poor fit]

**Q.** With CCCC(=O)N1N=C(c2ccccc2)CC1c1cn(C)c2ccccc12 (stereo not given) as the molecule, how does the Potency read?
**A.** inconclusive: 35.5 µM [inhibitor, single point]

**Q.** For O=C(CCCN1C(=O)/C(=C/c2ccccc2Cl)SC1=S)NNC(=O)c1ccc(Cl)cc1Cl, which activity change, negative = inhibition is on record?
**A.** inactive: -4.04% [at 9.22 µM]

**Q.** With Cc1ccccc1NC(=O)COc1ccc2c(c1)OC(C)(C)CC2=O as the molecule, how does the activity change, negative = inhibition read?
**A.** inactive: 8.66% [at 9.22 µM]

**Q.** For Nc1[nH]n2c(=O)cc(-c3ccccc3)nc2c1N=Nc1ccccc1, which Potency is on record?
**A.** active: 3.16 µM

**Q.** With O=C(Nc1cccc(C(=O)O)c1)/C(=C\c1ccccc1)NC(=O)c1ccccc1Cl as the molecule, how does the Potency read?
**A.** inconclusive: 35.5 µM [inhibitor, single point]

**Q.** With Cc1cccc(-n2ccnc2CN2CCN(C(C)C)C(CCO)C2)c1 (stereo not given) as the molecule, how does the activity change, negative = inhibition read?
**A.** inactive: 23.9% [at 9.22 µM]

**Q.** Which Potency does the source give for Cc1ccc(Cn2c(=O)n(CCC(=O)NCc3ccc4c(c3)OCO4)c(=O)c3ccccc32)cc1 here?
**A.** inconclusive: 35.5 µM [activator, partial curve]

**Q.** With O=C(CSc1nc2ccccc2c(=O)n1Cc1ccccc1)NCc1ccco1 as the molecule, how does the “activity change, negative = inhibition” value read?
**A.** inactive: -13.8%

**Q.** Which “activity change, negative = inhibition” value does the source give for Cc1cc(=O)[nH]c(SCC(=O)Nc2cccc(C(F)(F)F)c2)n1 here?
**A.** inactive: -24.8%

**Q.** For CN(c1ccccc1)S(=O)(=O)c1ccc(C(=O)Nc2nnc(C3CC3)o2)cc1, which Potency is on record?
**A.** inconclusive: 22.4 µM [inhibitor, single point]

**Q.** For O=C(Cc1cccs1)N1CCCC(c2nc3c(nnn3Cc3ccccc3Cl)c(=O)[nH]2)C1 (stereo not given), which “activity change, negative = inhibition” value is on record?
**A.** inactive: 7.05%

**Q.** Which Potency does the source give for CCCNC(=O)c1ccc(Cn2cc(C(F)(F)F)ccc2=O)cc1 here?
**A.** inconclusive: 2 µM [activator, partial curve]

**Q.** For O=C(COc1ccc(S(=O)(=O)N2CCCC2)cc1)NCC1CCCO1 (stereo not given), which activity change, negative = inhibition is on record?
**A.** inactive: -12.3% [at 9.22 µM]

**Q.** For CCOC(=O)c1ccc(N2C(=O)CC(N3CCOCC3)C2=O)cc1 (stereo not given), which “activity change, negative = inhibition” value is on record?
**A.** inactive: 15.9%

**Q.** Which Potency does the source give for Cc1cccc(NC(=O)c2ccccc2O)c1C here?
**A.** inconclusive: 25.1 µM [inhibitor, single point]

**Q.** With CCOC(=O)c1c(NC(=O)COC)sc2c1CCCC2 as the molecule, how does the “activity change, negative = inhibition” value read?
**A.** inactive: -3.56%
